According to PMC4374842:
Results are given in words; binding and its absence hold for the method and conditions named. In cells and extracts the contact can be indirect. Some entries that bind do so weakly or less than the wild type.

Chains of the proteins cited; added tags and fusions are not shown.
UniProt P49902: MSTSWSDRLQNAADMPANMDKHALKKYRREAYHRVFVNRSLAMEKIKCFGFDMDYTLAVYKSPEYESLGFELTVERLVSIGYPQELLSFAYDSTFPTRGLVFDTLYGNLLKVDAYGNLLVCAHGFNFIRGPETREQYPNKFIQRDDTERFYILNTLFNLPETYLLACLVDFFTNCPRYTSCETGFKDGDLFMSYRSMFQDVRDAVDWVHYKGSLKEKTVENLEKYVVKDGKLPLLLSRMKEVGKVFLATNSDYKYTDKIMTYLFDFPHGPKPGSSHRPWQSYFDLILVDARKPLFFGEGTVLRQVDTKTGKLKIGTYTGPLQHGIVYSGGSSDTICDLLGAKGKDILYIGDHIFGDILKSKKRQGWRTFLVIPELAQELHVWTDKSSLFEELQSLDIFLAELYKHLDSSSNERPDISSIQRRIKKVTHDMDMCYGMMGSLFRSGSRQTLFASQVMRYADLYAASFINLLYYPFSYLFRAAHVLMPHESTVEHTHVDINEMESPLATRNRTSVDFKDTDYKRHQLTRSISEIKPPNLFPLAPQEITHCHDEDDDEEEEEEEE
UniProt Q9NPP4: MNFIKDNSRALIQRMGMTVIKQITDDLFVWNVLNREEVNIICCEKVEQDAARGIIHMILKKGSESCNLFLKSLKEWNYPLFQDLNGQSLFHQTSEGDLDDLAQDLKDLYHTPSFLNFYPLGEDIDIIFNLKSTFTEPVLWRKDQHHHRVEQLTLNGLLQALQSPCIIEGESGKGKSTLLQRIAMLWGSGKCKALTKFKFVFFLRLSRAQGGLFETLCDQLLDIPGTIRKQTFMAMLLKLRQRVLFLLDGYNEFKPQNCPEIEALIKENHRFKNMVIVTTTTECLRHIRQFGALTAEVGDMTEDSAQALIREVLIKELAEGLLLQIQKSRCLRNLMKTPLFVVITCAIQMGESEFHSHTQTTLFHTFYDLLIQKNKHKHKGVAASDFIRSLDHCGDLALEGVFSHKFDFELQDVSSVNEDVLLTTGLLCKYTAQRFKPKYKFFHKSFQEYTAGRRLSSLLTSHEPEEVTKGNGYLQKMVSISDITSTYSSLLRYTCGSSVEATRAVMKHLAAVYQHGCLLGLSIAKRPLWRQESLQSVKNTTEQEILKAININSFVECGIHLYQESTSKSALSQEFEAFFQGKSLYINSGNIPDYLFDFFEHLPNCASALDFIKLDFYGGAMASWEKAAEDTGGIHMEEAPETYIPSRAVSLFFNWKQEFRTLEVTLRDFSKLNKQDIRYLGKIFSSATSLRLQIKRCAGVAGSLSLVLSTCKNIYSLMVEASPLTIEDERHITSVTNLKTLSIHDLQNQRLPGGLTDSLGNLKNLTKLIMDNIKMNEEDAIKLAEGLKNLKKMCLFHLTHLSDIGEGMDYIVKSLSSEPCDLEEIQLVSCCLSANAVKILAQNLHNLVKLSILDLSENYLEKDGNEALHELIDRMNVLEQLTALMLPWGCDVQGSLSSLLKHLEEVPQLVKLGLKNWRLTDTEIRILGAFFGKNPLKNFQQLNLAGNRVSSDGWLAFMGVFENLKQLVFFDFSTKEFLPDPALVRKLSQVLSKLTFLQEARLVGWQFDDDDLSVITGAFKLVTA

What was measured:
[1] = molecular target: Endogenous human cytosolic 5'-nucleotidase II (cN-II) (human (endogenous in HEK 293 T, A549, MDA-MB-231, MCF7)) (UniProt P49902); assay: proximity ligation; Duolink PLA with antibodies against cN-II and Ipaf in fixed A549 and MDA-MB-231 cells stably transfected with pScont or pScN-II (cN-II knock-down); both proteins endogenous
[2] = molecular target: Endogenous human cytosolic 5'-nucleotidase II (cN-II) (human (endogenous in HEK 293 T, A549, MDA-MB-231, MCF7)) (UniProt P49902); assay: co-IP; HEK 293 T lysate (20 mM Tris-HCl pH 6.8, 1 mM MgCl2, 2 mM EGTA, 0.5% NP40); endogenous cN-II immunoprecipitated with anti-cN-II (clone 3C1); transfected Ipaf forms detected with anti-GFP
[3] = molecular target: Endogenous human cytosolic 5'-nucleotidase II (cN-II) (human (endogenous in HEK 293 T, A549, MDA-MB-231, MCF7)) (UniProt P49902); assay: proximity ligation; Duolink PLA with antibodies against cN-II and Ipaf in fixed MCF7 cells transiently co-transfected with pEZ-M02-Ipaf and pEGFP-C1 (10:1); GFP-positive cells analysed

## Endogenous Ipaf in A549 and MDA-MB-231 cells (from UniProt Q9NPP4 1-1024)
[1]
  binding: binds

## Ipaf fused to YFP (pEZ-M15-YFP/Ipaf) (from UniProt Q9NPP4 1-1024)
[2]
  binding: binds

## Whole Ipaf expressed from pEZ-M02-Ipaf (from UniProt Q9NPP4 1-1024)
[3]
  binding: binds
